Results: patent publication EP4335867A1
Results are given in words; binding and its absence hold for the method and conditions named. Some entries that bind do so weakly or less than the wild type.

Target: human transferrin receptor-Fc tag standard (human) (UniProt P02786)
Test: ELISA on plate-bound hTfR-Fc with anti-His detection

binding: binds
B1: huHF_Mutant2-dual (designed binder, not shown: small tags and cut ends)
chain: MTTASTSQVRQNYHAASEAAINAQINLELYASYVYLSMSYYFDRDDVALKNFAKYFLHQSHEEREHAEKLMKLQNQRGGRIALADIQKPDCDDGGSYGSLYAFDIWESGLNAMECALHLEKNVNQSLLALHALATAKNDPHLCDFIETHYLNEQVKAIKELGDHVTNLRKMGAPESGLAEYLFDKHTLGDSDNESMPSFITLASLSTWEGYFDF
